{
  "source": "PubChem BioAssay AID504467",
  "about": "(National Center for Advancing Translational Sciences (NCATS), 2011)",
  "note": "In all, about 330,000 compounds went through this assay and about 7,700 (2.3%) were called active. This list was built around the results that the source calls inconclusive (neither active nor inactive); the mix of calls is not that of the screen. Calls follow the shape of the dose curve; as a rule, active = well fitted inhibition curve with a large enough effect; inconclusive = small, poorly fitted or top-dose-only effect, or effect the other way; inactive = flat fitted curve, though single readings scatter. Where the call is inconclusive, the potency comes from a doubtful curve fit. Potency is read from the fitted curve at half-maximal effect.",
  "data": [
    {"assay": "qHTS screen for small molecules that inhibit ELG1-dependent DNA repair in human embryonic kidney (HEK293T) cells expressing luciferase-tagged ELG1; also: nearly all actives have a fitted effect of over 55% in size", "conditions": "HEK293T ELG1-luciferase reporter, luminescence, 16 h, DNA damage induced by 5-fluorouridine; series mostly up to 46.1 µM", "summary_of_the_method": "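HEK293T cells expressing luciferase-tagged ELG1 (2,000/well) received 5-Fluorouridine plus compound or DMSO for 16 hr at 37 °C. Luciferase was read by ONE-Glo luminescence after 30 min at room temperature.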", "values": [
      {"compound": "Nc1ncnc(Sc2ncccn2)c1[N+](=O)[O-]", "Potency": "inconclusive: 29.1 µM [activator, single point]"},
      {"compound": "O=c1[nH][nH]c(-c2ccccc2)c1C=Nc1ccc(OC(F)(F)F)cc1", "Potency": "inactive"},
      {"compound": "CCOC(=O)C1=C(C)N=c2s/c(=C/c3ccc(OCC(=O)O)cc3)c(=O)n2C1c1cc(OC)c(OC)c(OC)c1", "note": "(configuration not stated)", "Potency": "inactive"},
      {"compound": "CCCCSC1=C(C#N)C(c2ccccc2C)C(C(=O)OCC)C(=O)N1", "note": "(configuration not stated)", "Potency": "inconclusive: 25.9 µM [inhibitor, single point]"},
      {"compound": "O=C(COC(=O)c1cc[n+]([O-])cc1)Nc1c(Cl)cccc1C(F)(F)F", "Potency": "inconclusive: 4.61 µM [activator, single point]"},
      {"compound": "Cc1cc(Nc2cccc(Cl)c2)c2ccccc2n1", "Potency": "inconclusive: 10.3 µM [inhibitor, partial curve, poor fit]"},
      {"compound": "Cc1cc(C(=O)OCC(=O)NCc2ccco2)c(C)n1-c1ccccc1", "Potency": "inconclusive: 3.16 µM [inhibitor, single point]"},
      {"compound": "CC1(c2ccc3c(c2)OCCO3)NC(=O)N(CC(=O)Nc2ccccc2SCC#N)C1=O", "note": "(configuration not stated)", "Potency": "inconclusive: 6.51 µM [activator, full curve, poor fit]"},
      {"compound": "O=C(Cc1ccc(S(=O)(=O)N2CCCCC2)cc1)NCc1ccc(Cl)cc1", "Potency": "inactive"},
      {"compound": "Cc1cc(Br)ccc1OCCCCN1CCC(C)CC1", "Potency": "inactive"},
      {"compound": "CCC(c1nnnn1CCOC)N1CCN(c2cccc(C(F)(F)F)c2)CC1", "note": "(configuration not stated)", "Potency": "inactive"},
      {"compound": "CCCOc1ccc(-c2nnc(-c3cccs3)o2)cc1", "Potency": "inconclusive: 1.46 µM [activator, partial curve]"},
      {"compound": "O=C(C[n+]1ccccc1)N/N=C/c1cc(Br)ccc1O", "Potency": "inactive"},
      {"compound": "CC(C)Oc1ccc(C(=O)Nc2cc(S(=O)(=O)N3CCOCC3)ccc2N2CCOCC2)cc1", "Potency": "inconclusive: 20.6 µM [inhibitor, single point]"},
      {"compound": "CCOc1ccccc1CN(CCc1ccc2c(c1)OCO2)Cc1ccccn1", "Potency": "inconclusive: 29.1 µM [inhibitor, partial curve, poor fit]"},
      {"compound": "O=C(CSc1n[nH]c(=O)n1Cc1ccccc1)Nc1ccc(N2CCOCC2)cc1", "Potency": "inactive"},
      {"compound": "O=C(O)c1ccc(N=Nc2c(-c3ccccc3)[nH]oc2=O)cc1", "Potency": "inconclusive: 18.3 µM [activator, single point]"},
      {"compound": "O=C(O)c1cn(CCOc2ccccc2Cl)c2ccccc12", "Potency": "inconclusive: 29.1 µM [activator, single point]"},
      {"compound": "O=C(CS(=O)(=O)Nc1ccc(F)cc1Cl)Nc1ccc(F)cc1Cl", "Potency": "inconclusive: 20.6 µM [inhibitor, partial curve, poor fit]"},
      {"compound": "CCN(Cc1ccccc1)c1ccc(/C=N/N2CCOCC2)cc1", "Potency": "inconclusive: 13 µM [activator, partial curve]"},
      {"compound": "CC(C)CN1CCNC(=O)C1CC(=O)NCc1cnn(-c2cccc(F)c2)c1", "note": "(configuration not stated)", "Potency": "inconclusive: 20.6 µM [inhibitor, partial curve, poor fit]"},
      {"compound": "CCCCCOC(=O)c1ccc(NC(=O)c2ccco2)cc1", "Potency": "inactive"},
      {"compound": "CCCCn1c(SCc2ccc(C(=O)OC)o2)nc2cc(S(N)(=O)=O)ccc21", "Potency": "active: 10.3 µM"},
      {"compound": "COCCn1c(SCC(=O)Nc2cccc(NC(C)=O)c2)nc2c([nH]c3ccccc32)c1=O", "Potency": "inconclusive: 3.66 µM [inhibitor, partial curve, poor fit]"},
      {"compound": "COC(=O)c1ccc(S(=O)(=O)N(Cc2ccccc2)Cc2ccccc2)n1C", "Potency": "inconclusive: 14.6 µM [inhibitor, partial curve]"},
      {"compound": "Cc1cc2cc(CCNC(=O)c3ccc(C)c([N+](=O)[O-])c3)c(=O)[nH]c2cc1C", "Potency": "inconclusive: 18.4 µM [inhibitor, single point]"},
      {"compound": "CCn1c(C)cc(/C=C2/SC(=O)N(C(C)C(=O)OC)C2=O)c1C", "note": "(configuration not stated)", "Potency": "inconclusive: 18.3 µM [activator, partial curve]"},
      {"compound": "c1coc(CNc2nc(-c3cccs3)cs2)c1", "Potency": "inactive"},
      {"compound": "COC(=O)c1ccc(N2NC(=O)/C(=C/c3cc(OC)c(OC)c(OC)c3)C2=O)cc1", "Potency": "inconclusive: 20.6 µM [activator, single point]"},
      {"compound": "O=C(CN1C(=O)C2C3C=CC(C3)C2C1=O)OCC(=O)c1ccc(Cl)cc1", "note": "(configuration not stated)", "Potency": "inactive"},
      {"compound": "CC(OC(=O)CCNS(=O)(=O)c1cccs1)C(=O)Nc1ccc(S(N)(=O)=O)cc1", "note": "(configuration not stated)", "Potency": "inactive"},
      {"compound": "Cc1cc(C(=O)OCC(=O)N(C)c2ccccc2)c2ccccc2n1", "Potency": "inconclusive: 29.1 µM [inhibitor, single point]"},
      {"compound": "O=C(NCCCn1ccnc1)c1noc2c1CCc1ccccc1-2", "Potency": "inactive"},
      {"compound": "CC1(c2ccc3c(c2)OCCO3)NC(=O)N(CC(=O)Nc2ccccc2)C1=O", "note": "(configuration not stated)", "Potency": "inconclusive: 18.3 µM [activator, partial curve, poor fit]"},
      {"compound": "O=C(Nc1cccc(-c2nn[nH]n2)c1)c1csc2c1CCCC2", "Potency": "inactive"},
      {"compound": "CC(CCc1ccccc1)NC(=O)COC(=O)c1ccc([N+](=O)[O-])cc1", "note": "(configuration not stated)", "Potency": "inconclusive: 32.6 µM [activator, partial curve, poor fit]"},
      {"compound": "Cc1ccc(C(=O)Nc2ccc(S(=O)(=O)N3CCOCC3)cc2)cc1", "Potency": "inactive"},
      {"compound": "C=CCn1c(-c2cccs2)nc2nc3ccccc3nc21", "Potency": "inactive"},
      {"compound": "COC(=O)c1ccc(C2CC(=O)Nc3cc(OC)c(OC)c(OC)c32)cc1", "note": "(configuration not stated)", "Potency": "inconclusive: 13 µM [activator, partial curve]"},
      {"compound": "O=C1C(c2ccccc2)NC(=S)N1C1CCCCC1", "note": "(configuration not stated)", "Potency": "inactive"},
      {"compound": "CCC(=O)NC(c1ccc(C)cc1)c1ccc2cccnc2c1O", "note": "(configuration not stated)", "Potency": "inconclusive: 6.51 µM [inhibitor, single point]"},
      {"compound": "CC1CC(=O)Nc2ccccc2N1C(=O)COc1cc(Cl)ccc1Cl", "note": "(configuration not stated)", "Potency": "inactive"},
      {"compound": "Nc1cc(-c2ccc(Cl)cc2)nn1-c1ccccc1", "Potency": "inconclusive: 9.2 µM [activator, partial curve]"},
      {"compound": "O=C(Cc1cnc2ncnn2c1)N1CCc2c([nH]c3ccccc23)C1c1ccccn1", "note": "(configuration not stated)", "Potency": "inactive"},
      {"compound": "Cc1cc(/C(N)=N/OC(=O)c2ccccc2Cl)no1", "Potency": "inconclusive: 2.59 µM [activator, partial curve]"},
      {"compound": "CSc1cccc(NC(=S)N(Cc2ccc(C)cc2)Cc2cccnc2)c1", "Potency": "inconclusive: 23.1 µM [inhibitor, single point]"},
      {"compound": "CN(C)C(=O)CCc1nc(-c2ccc(C(C)(C)C)cc2)no1", "Potency": "inconclusive: 18.4 µM [activator, partial curve]"},
      {"compound": "C=CCN(c1ccccc1)S(=O)(=O)c1cc(C(=O)NC2=NCCS2)ccc1Cl", "Potency": "active: 20.6 µM"},
      {"compound": "COC(=O)CC(NC(=S)NC(=O)c1ccccc1)c1ccc(Br)cc1", "note": "(configuration not stated)", "Potency": "inactive"},
      {"compound": "O=C(CSc1nnc2ccccn12)Nc1ccccc1Cl", "Potency": "inconclusive: 16.4 µM [activator, partial curve, poor fit]"},
      {"compound": "CCN1CCN(c2nc(-c3ccccc3Cl)nc3ccccc23)CC1", "Potency": "inconclusive: 0.164 µM [inhibitor, single point]"},
      {"compound": "CCOc1cc(-c2cc(N)n[nH]2)cc(OCC)c1OCC", "Potency": "inconclusive: 23.1 µM [inhibitor, partial curve]"},
      {"compound": "COC(=O)c1ccccc1NC(=O)NCCc1ccccc1OC", "Potency": "inconclusive: 29.1 µM [activator, single point]"},
      {"compound": "O=C(c1ccc2[nH]c(=O)c(=O)[nH]c2c1)N1CCc2ccccc21", "Potency": "inactive"},
      {"compound": "O=C(CSc1ccc(Cl)cc1)Nc1cccc(-c2nnc(-c3ccco3)o2)c1", "Potency": "inconclusive: 7.31 µM [activator, partial curve]"},
      {"compound": "S=C(NCCc1ccccc1)NCc1cccs1", "Potency": "inconclusive: 23.1 µM [activator, partial curve]"},
      {"compound": "O=C(CCN1C(=O)c2ccccc2C1=O)NC(=S)Nc1cccc(Cl)c1", "Potency": "inactive"},
      {"compound": "Cc1ccccc1OCC(=O)Nc1ccc2c(c1)OCO2", "Potency": "inconclusive: 23.1 µM [activator, single point]"},
      {"compound": "CCCCCn1cnc2c(sc3nc4c(cc32)CSC(C)(C)C4)c1=O", "Potency": "inconclusive: 2.59 µM [activator, full curve]"},
      {"compound": "CN1CCN(c2ccc(NC(=O)c3ccc(-c4ccc(Br)cc4)o3)cc2)CC1", "Potency": "inconclusive: 29.1 µM [inhibitor, single point]"},
      {"compound": "Cc1ccc(-c2nc3c(c(=O)c4ccccc4n3C)c(=O)n2Cc2ccco2)cc1", "Potency": "inactive"},
      {"compound": "COc1cc2c(cc1OC)CN(C(=O)c1ccc(S(=O)(=O)N(C)c3ccccc3)cc1)CC2", "Potency": "inconclusive: 18.3 µM [inhibitor, single point]"},
      {"compound": "CCOc1ccccc1NC(=O)n1ncc2c(C)cccc21", "Potency": "inconclusive: 20.6 µM [activator, single point]"},
      {"compound": "CC1(C)Cc2c(sc3nc(C4CC4)n(N)c(=O)c23)CO1", "Potency": "inactive"},
      {"compound": "O=C(CSc1nc2ccccc2s1)Nc1cc(S(=O)(=O)N2CCOCC2)ccc1Cl", "Potency": "active: 23.1 µM"},
      {"compound": "COC(=O)/C(=C/c1ccco1)NC(=O)c1ccccc1", "Potency": "inactive"},
      {"compound": "CCOC(=O)C1CCN(C(=O)c2ccc3c(c2)OCCO3)CC1", "Potency": "inconclusive: 5.8 µM [activator, single point]"},
      {"compound": "CCn1c(=O)cc(SCC(=O)NCCCN2CCC(C)CC2)c2ccccc21", "Potency": "inconclusive: 16.4 µM [activator, partial curve]"},
      {"compound": "COc1ccc([C@H]2CC(=O)C=C(c3cc(F)ccc3F)C2)cc1OC", "Potency": "inconclusive: 29.1 µM [inhibitor, single point]"},
      {"compound": "COc1cc(CNc2ccc(CNc3ncn[nH]3)cc2)ccc1OCC(=O)NC(C)(C)C", "Potency": "inconclusive: 20.6 µM [inhibitor, partial curve]"},
      {"compound": "COc1ccc(C2=NS(=O)(=O)N(C)C(C(=O)NC(C)c3ccccc3)=C2)cc1", "note": "(configuration not stated)", "Potency": "inactive"},
      {"compound": "CCn1cnc2c(Nc3cc(F)cc(F)c3)nc(C#N)nc21", "Potency": "inconclusive: 11.6 µM [activator, partial curve]"}
    ]}
  ]
}
